Test [1] addresses M3-muscarinic acetylcholine receptor (M3R) (human) (UniProt P20309). The test is described as follows: co-immunoprecipitation from HASMC lysates.
For test [2] the target is unchanged. The test is described as follows: co-immunoprecipitation in primary HASMCs (FIG. 2A) and SRE-luciferase reporter (FIG. 2B). A general note: Reporter assays use an easily measured gene product as a stand-in for the process of interest.
The target is the same in test [3]. The experiment in a line: co-immunoprecipitation from primary HASMC lysates: IP with anti-M3R, blot for Gα12; band density diminished after carbachol (10 µM, 1 minute).
For test [4], the target named is Gα12 (human) (UniProt Q03113). The experiment in a line: co-immunoprecipitation and SRE-luciferase reporter in HASMCs.
Test [5] concerns the target Gα12 (human) (UniProt Q03113). The test is described as follows: co-immunoprecipitation from primary HASMC lysates: IP with anti-Gα12, blot for M3R; band density diminished after carbachol (10 µM, 1 minute).

Sequences of proteins named here, by UniProt entry; tags and fusion partners are left off. A change or cut given only in a name is not applied to a line headed by its entry.
UniProt Q03113: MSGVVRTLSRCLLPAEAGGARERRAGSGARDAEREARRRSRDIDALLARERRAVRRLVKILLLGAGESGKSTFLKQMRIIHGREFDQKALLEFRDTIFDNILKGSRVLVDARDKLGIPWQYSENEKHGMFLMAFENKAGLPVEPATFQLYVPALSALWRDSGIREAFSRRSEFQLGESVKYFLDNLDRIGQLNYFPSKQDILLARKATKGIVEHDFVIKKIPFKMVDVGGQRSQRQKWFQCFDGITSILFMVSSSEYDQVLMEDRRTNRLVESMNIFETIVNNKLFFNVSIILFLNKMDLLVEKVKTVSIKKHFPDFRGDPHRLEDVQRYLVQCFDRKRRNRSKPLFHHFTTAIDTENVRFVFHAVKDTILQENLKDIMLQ

This note sets out measurements from patent publication US20210145828A1.

These are yes or no findings as the source states them, for the method shown. Binding seen in cells or lysates may run through a third protein. Some entries that bind do so weakly or less than the wild type.

Consider Gα12 (from UniProt Q03113 1-381), for which the binding entry in test [1], in test [2] and in test [3] was “binds” each time.

“M3-muscarinic acetylcholine receptor (M3R) (from UniProt P20309 1-590)”: the binding entry in test [4] and in test [5] was “binds” each time.
